Data reported in PMC4605787.

Amino acid sequences for entries named in this document (tags omitted).
UniProt P47197: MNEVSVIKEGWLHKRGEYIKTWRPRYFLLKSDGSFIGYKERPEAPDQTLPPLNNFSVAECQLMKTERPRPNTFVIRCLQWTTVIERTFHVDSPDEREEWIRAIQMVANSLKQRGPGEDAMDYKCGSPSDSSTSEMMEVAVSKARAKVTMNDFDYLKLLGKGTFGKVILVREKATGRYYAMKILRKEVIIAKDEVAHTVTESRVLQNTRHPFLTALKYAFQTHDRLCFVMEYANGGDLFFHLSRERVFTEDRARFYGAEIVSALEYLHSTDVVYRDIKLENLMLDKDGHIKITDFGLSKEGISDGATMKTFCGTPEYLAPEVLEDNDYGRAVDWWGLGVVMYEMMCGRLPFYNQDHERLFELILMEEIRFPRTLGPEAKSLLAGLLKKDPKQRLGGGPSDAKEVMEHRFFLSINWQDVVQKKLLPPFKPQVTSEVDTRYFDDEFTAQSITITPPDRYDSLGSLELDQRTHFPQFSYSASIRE

B1: Proliferation-associated protein 2G4 (protein, UniProt Q6AYD3 1-394)
chain: MSGEDEQQEQTIAEDLVVTKYKMGGDIANRVLRSLVEASSSGVSVLSLCEKGDAMIMEETGKIFKKEKEMKKGIAFPTSISVNNCVCHFSPLKSDQDYILKEGDLVKIDLGVHVDGFIANVAHTFVIGVAQGSQVTGRKADVIKAAHLCAEAALRLVKPGNQNTQVTEAWNKVAHSFNCTPIEGMLSHQLKQHVIDGEKTIIQNPTDQQKKDHEKAEFEVHEVYAVDVLVSSGEGKAKDAGQRTTIYKRDPSKQYGLKMKTSRAFFSEVERRFDAMPFTLRAFEDEKKARMGVVECAKHELLQPFNVLYEKEGEFVAQFKFTVLLMPNGPMRITSGPFEPDLYKSEMEVQDAELKALLQSSASRKTQKKKKKKASKTAENATSGETLEENGAGD
B2: H/ACA ribonucleoprotein complex subunit 1 (protein, UniProt Q6AYA1 1-226)
chain: MSFRGGGRGGFNRGGGGGGFNRGGGSNNHFRGGGGGGGGGGNFRGGGRGGFGRGGGRGGFNKFQDQGPPERVVLLGEFMHPCEDDIVCKCTTEENKVPYFNAPVYLENKEQIGKVDEIFGQLRDFYFSVKLSENMKASSFKKLQKFYIDPYKLLPLQRFLPRPPGEKGPPRGGGGGGGGGRGGRGGGRGGGGRGGGRGGGFRGGRGGGGGFRGGRGGGGGFRGRGH
B3: Protein disulfide-isomerase A4 (protein, UniProt P38659 21-643)
chain: AASAEDAHEDASDSENPIEDDDDEEEDEEDEDDLEVKEENGVWVLNDENFDNFVADKDTVLLEFYAPWCGHCKQFAPEYEKIASTLKDNDPPIAVAKIDATSASMLASKFDVSGYPTIKILKKGQAVDYDGSRTQEEIVAKVREVSQPDWTPPPEVTLTLTKENFDDVVNNADIILVEFYAPWCGHCKKLAPEYEKAAKELSKRSPPIPLAKVDATEQTDLAKRFDVSGYPTLKIFRKGRPFDYNGPREKYGIVDYMVEQSGPPSKEILTLKQVQEFLKDGDDVVILGVFQGVGDPGYLQYQDAANTLREDYKFHHTFSTEIAKFLKVSLGKLVLMQPEKFQSKYEPRMHVMDVQGSTEASAIKDYVVKHALPLVGHRKTSNDAKRYSKRPLVVVYYSVDFSFDYRTATQFWRNKVLEVAKDFPEYTFAIADEEDYATEVKDLGLSESGEDVNAAILDESGKKFAMEPEEFDSDALQEFVMAFKKGKLKPVIKSQPVPKNNKGPVRVVVGKTFDAIVMDPKKDVLIEFYAPWCGHCKQLEPVYTSLGKKYKGQKDLVIAKMDATANDITNDRYKVEGFPTIYFAPSGDKKNPIKFEGGNRDLEHLSKFIDEHATKRSRTKEEL
B4: Phosphatidylethanolamine-binding protein 1 (protein, UniProt P31044 1-187)
chain: MAADISQWAGPLSLQEVDEPPQHALRVDYGGVTVDELGKVLTPTQVMNRPSSISWDGLDPGKLYTLVLTDPDAPSRKDPKFREWHHFLVVNMKGNDISSGTVLSEYVGSGPPKDTGLHRYVWLVYEQEQPLNCDEPILSNKSGDNRGKFKVESFRKKYHLGAPVAGTCFQAEWDDSVPKLHDQLAGK
B5: Heterogeneous nuclear ribonucleoprotein L (protein, UniProt F1LQ48 1-623)
chain: MSRRLLPRAEKRRRRLEQRQQPDEQLRRAGAMVKMAAAGGGGGGGRYYGGGNEGGRAPKRLKTENAGDQHGGGGGGGSGAAGGGGGENYDDPHKTPASPVVHIRGLIDGVVEADLVEALQEFGPISYVVVMPKKRQALVEFEDVLGACNAVNYAADNQIYIAGHPAFVNYSTSQKISRPGDSDDSRSVNSVLLFTILNPIYSITTDVLYTICNPCGPVQRIVIFRKNGVQAMVEFDSVQSAQRAKASLNGADIYSGCCTLKIEYAKPTRLNVFKNDQDTWDYTNPNLSGQGDPGSNPNKRQRQPPLLGDHPAEYGEGRGFPSVDSRGSCAPARRPPRKFSPVLPLFPSHPPGGPHGGYHSHYHDEGYGPPPPHYEGRRMGPPVGGHRRGPSRYGPQYGHPPPPPPPPDYGPHADSPVLMVYGLDQSKMNCDRVFNVFCLYGNVEKVKFMKSKPGAAMVEMADGYAVDRAITHLNNNFMFGQKMNVCVSKQPAIMPGQSYGLEDGSCSYKDFSESRNNRFSTPEQAAKNRIQHPSNVLHFFNAPLEVTEENFFEICDELGVKRPTSVKVFSGKSERSSSGLLEWDSKSDALETLGFLNHYQMKNPNGPYPYTLKLCFSTAQHAS
B6: Interferon-induced guanylate-binding protein 2 (protein, UniProt Q63663 1-589)
chain: MASEIHMLQPMCLIENTEAHLVINQEALRILSAINQPVVVVAIVGLYRTGKSYLMNKLAGKRTGFSLGSTVQSHTKGIWMWCVPHPKKAGQTLVLLDTEGLEDVEKGDNQNDCWIFALAVLLSSTFVYNSMGTINQQAMDQLHYVTELTDLIKSKSSPDQSGIDDSANFVGFFPTFVWALRDFSLELEVNGKLVTPDEYLEHSLTLKKGADKKTKSFNEPRLCIRKFFPKRKCFIFDRPALRKQLCKLETLGEEELCSEFVEQVAEFTSYIFSYSAVKTLSGGIIVNGPRLKSLVQTYVGAISSGSLPCMESAVLTLAQIENSAAVQKAITHYEEQMNQKIQMPTETLQELLDLHRLIEREAIEIFLKNSFKDVDQKFQTELGNLLISKRDAFIKKNSDVSSAHCSDLIEDIFGPLEEEVKQGTFSKPGGYFLFLQMRQELEKKYNQAPGKGLEAEAVLKKYFESKEDIVETLLKTDQSLTEAAKEIEVERIKAETAEAANRELAEKQEKFELMMQQKEESYQEHVRQLTEKMKEEQKKLIEEQDNIIALKLREQEKFLREGYENESKKLLREIENMKRRQSPGKCTIL
B7: Hypoxanthine-guanine phosphoribosyltransferase (protein, UniProt P27605 1-218)
chain: MSTLSPSVVISDDEPGYDLDLFCIPNHYAEDLEKVFIPHGLIMDRTERLARDVMKEMGGHHIVALCVLKGGYKFFADLLDYIKALNRNSDRSIPMTVDFIRLKSYCNDQSTGDIKVIGGDDLSTLTGKNVLIVEDIIDTGKTMQTLLSLVKQYSPKMVKVASLLVKRTSRSVGYRPDFVGFEIPDKFVVGYALDYNEHFRDLNHVCVISESGKAKYKA
B8: Alcohol dehydrogenase [NADP(+)] (protein, UniProt P51635 1-325)
chain: MTASSVLLHTGQKMPLIGLGTWKSEPGQVKAAIKYALSVGYRHIDCASVYGNETEIGEALKESVGAGKAVPREELFVTSKLWNTKHHPEDVEPAVRKTLADLQLEYLDLYLMHWPYAFERGDNPFPKNADGTVKYDSTHYKETWKALEALVAKGLVKALGLSNFSSRQIDDVLSVASVRPAVLQVECHPYLAQNELIAHCQARGLEVTAYSPLGSSDRAWRHPDEPVLLEEPVVLALAEKHGRSPAQILLRWQVQRKVICIPKSITPSRILQNIQVFDFTFSPEEMKQLDALNKNWRYIVPMITVDGKRVPRDAGHPLYPFNDPY
B9: Ornithine aminotransferase, mitochondrial (protein, UniProt P04182 36-439)
chain: GPPSSEYIFERESKYGAHNYHPLPVALERGKGIYMWDVEGRQYFDFLSAYGAVSQGHCHPKIIEAMKSQVDKLTLTSRAFYNNVLGEYEEYITKLFNYNKVLPMNTGVEAGETACKLARRWGYTVKGIQKYKAKIVFAVGNFWGRTLSAVSSSTDPTSYDGFGPFMPGFETIPYNDLPALERALQDPNVAAFMVEPIQGEAGVIVPDPGYLTGVRELCTRHQVLFIADEIQTGLARTGRWLAVDHENVRPDIVLLGKALSGGLYPVSAVLCDDDIMLTIKPGEHGSTYGGNPLGCRIAIAALEVLEEEHLAENADKMGAILRKELMKLPSDVVTAVRGKGLLNAIVIRETKDCDAWKVCLRLRDNGLLAKPTHGDIIRLAPPLVIKEDEIRESVEIINKTILSF

Molecular target: Akt2 (rat (endogenous in L6 myoblasts)) (UniProt P47197)
Test: affinity purification with mass spectrometry; endogenous Akt2 immunoprecipitated (2 ug rabbit polyclonal anti-Akt2, protein A beads, overnight, 4°C) from 1 mg L6 myoblast lysate precleared with NIgG; cells serum-starved, with or without 100 nM insulin for 15 min; lysis buffer 50 mM HEPES pH 7.6, 150 mM NaCl, 1% Triton; 1D-SDS-PAGE, in-gel trypsin digestion, HPLC-ESI-MS/MS, label-free quantification; hits absent from all NIgG controls

binding, binds:
B1
B2
B3
B4
B5
B6
B7
B8
B9

No constants are given. Whether binding was seen depends on the method and setting. In cells and extracts the contact can be indirect. Here binding means that the protein was enriched with, or labelled near, the bait; the list need not be complete.
